This is one part of the list.
Each target was assayed with CCn1cc(-c2ccnc3[nH]c(-c4cccc(CN(C)C)c4)cc23)c(-c2ccc(NC(=O)N(C)C)cc2)n1 (assay: log2 fold change, soluble protein after heating vs DMSO (PISA); higher = thermal stabilisation; K562 cells, 10 uM, 30 min; active = over 0.2 and 3.5 SD of the protein, either way, in both replicates (recomputed)).
How it was run: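 Values are thermal stability changes relative to control samples and are taken from duplicates. They are stated as log2 fold changes. Before quantification by TMTpro 16plex LC-MS/MS with equalised channel sums, K562 cells at 2×10^6 cells/mL were treated with 10 μM compound for 30 min, heated in aliquots for 3 min across 48°C-58°C, pooled, extracted in PBS with 0.5% NP-40 at 4°C, and centrifuged at 21,000xg for 90 min to give the soluble supernatant.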

The chains behind the UniProt entries cited, without tags or fusion partners. Where a name states a change or a piece, a line headed by the entry shows the natural chain unless it says otherwise.
UniProt P21580: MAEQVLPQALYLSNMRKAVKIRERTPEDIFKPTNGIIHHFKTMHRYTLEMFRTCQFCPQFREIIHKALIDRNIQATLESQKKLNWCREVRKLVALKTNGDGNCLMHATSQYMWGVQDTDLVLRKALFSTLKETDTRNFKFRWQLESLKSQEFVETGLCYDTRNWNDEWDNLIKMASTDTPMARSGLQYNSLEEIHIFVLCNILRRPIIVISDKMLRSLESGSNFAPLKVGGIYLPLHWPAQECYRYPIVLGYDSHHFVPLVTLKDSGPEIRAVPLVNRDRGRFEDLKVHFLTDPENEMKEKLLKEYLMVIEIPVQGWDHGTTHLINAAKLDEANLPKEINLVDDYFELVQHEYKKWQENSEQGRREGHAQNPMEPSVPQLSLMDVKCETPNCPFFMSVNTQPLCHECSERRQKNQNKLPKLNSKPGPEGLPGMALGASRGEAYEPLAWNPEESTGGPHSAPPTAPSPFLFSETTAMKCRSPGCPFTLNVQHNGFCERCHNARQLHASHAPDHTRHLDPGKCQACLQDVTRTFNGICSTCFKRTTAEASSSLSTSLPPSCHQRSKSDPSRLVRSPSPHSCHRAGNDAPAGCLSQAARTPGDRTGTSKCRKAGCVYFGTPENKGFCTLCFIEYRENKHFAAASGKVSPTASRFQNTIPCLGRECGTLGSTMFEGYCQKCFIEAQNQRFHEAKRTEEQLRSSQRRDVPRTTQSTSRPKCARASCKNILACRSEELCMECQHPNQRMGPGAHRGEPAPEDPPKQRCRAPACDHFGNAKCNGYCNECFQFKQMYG
UniProt P19438, whole entry, looked up: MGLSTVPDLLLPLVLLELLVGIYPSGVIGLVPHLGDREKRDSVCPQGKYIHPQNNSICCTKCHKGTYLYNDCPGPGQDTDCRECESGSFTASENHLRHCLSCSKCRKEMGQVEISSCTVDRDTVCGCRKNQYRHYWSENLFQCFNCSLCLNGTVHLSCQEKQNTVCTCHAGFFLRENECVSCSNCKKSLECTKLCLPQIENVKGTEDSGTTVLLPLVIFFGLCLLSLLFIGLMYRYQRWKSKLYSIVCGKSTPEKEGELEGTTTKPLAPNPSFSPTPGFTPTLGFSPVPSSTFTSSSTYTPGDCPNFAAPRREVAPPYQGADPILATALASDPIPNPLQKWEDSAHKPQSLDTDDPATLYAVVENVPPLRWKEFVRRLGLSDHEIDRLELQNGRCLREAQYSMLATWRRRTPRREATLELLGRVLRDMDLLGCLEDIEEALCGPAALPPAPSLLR
UniProt Q8NCS4: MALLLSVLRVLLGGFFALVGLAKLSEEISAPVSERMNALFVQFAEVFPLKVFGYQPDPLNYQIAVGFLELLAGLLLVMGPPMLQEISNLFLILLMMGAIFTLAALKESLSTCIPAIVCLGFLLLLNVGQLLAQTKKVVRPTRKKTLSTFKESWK
UniProt Q96DC7: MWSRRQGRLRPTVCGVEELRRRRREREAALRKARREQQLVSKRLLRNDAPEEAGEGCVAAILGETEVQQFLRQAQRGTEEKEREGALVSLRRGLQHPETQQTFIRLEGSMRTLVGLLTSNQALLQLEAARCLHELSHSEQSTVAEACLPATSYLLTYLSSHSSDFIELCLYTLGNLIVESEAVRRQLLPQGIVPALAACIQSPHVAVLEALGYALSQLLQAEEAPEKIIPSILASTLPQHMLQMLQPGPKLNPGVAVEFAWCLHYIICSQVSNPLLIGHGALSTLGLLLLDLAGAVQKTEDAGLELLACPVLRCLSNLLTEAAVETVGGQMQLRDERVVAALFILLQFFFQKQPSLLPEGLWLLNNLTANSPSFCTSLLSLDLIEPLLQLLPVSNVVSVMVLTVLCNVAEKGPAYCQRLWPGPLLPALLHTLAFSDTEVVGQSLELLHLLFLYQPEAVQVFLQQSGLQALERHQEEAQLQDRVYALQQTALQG
UniProt Q9NVA4: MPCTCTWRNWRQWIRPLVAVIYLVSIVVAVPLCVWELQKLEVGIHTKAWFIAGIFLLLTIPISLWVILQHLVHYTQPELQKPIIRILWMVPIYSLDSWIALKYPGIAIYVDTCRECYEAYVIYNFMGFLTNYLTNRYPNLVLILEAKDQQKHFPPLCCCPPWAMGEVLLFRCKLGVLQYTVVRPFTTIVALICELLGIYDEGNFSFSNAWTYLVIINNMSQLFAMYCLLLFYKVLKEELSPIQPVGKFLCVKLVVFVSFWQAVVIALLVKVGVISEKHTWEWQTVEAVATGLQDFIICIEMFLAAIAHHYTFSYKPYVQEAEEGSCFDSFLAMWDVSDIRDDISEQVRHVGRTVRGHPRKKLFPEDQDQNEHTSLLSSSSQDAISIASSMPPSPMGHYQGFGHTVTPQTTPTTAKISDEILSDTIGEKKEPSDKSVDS
UniProt Q6UWJ1: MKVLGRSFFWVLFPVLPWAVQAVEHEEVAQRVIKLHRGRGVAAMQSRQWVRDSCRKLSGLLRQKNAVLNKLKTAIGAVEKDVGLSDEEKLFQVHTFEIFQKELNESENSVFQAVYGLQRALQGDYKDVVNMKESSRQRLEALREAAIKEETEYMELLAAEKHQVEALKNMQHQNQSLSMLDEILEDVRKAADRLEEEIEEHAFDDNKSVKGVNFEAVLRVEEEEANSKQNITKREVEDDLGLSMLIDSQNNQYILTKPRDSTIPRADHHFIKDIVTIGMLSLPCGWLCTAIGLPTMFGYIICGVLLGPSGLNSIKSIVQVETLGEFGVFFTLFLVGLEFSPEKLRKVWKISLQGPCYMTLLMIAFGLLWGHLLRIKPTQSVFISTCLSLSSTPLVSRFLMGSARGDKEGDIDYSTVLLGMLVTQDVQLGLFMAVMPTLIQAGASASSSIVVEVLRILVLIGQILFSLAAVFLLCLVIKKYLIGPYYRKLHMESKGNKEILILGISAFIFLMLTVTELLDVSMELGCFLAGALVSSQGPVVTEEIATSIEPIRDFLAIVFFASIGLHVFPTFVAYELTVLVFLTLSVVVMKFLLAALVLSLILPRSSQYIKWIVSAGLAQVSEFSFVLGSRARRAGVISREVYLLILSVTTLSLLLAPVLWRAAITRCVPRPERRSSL
UniProt Q96Q45: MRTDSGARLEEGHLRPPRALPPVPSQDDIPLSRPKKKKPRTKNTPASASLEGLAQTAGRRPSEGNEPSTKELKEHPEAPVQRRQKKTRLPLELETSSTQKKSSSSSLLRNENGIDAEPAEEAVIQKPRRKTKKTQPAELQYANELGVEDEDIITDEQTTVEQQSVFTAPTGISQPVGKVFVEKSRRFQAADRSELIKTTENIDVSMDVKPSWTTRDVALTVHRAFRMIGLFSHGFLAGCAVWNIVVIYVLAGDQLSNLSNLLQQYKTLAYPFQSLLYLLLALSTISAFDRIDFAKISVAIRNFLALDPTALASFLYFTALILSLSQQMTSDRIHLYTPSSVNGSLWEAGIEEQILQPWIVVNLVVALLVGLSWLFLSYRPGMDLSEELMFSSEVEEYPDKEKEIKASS
UniProt Q86XT9, whole entry, looked up: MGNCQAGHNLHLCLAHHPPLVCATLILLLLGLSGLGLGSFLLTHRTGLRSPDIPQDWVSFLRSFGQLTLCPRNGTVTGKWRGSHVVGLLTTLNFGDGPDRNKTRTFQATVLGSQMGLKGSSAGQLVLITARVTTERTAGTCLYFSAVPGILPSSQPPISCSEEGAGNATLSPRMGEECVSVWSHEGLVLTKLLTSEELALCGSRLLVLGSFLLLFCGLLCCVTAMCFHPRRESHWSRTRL
UniProt Q9H6X4: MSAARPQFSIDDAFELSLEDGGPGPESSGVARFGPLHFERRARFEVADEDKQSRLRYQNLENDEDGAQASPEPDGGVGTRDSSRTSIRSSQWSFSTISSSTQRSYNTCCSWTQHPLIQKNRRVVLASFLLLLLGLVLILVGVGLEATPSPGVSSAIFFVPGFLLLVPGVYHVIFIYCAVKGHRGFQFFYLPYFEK
UniProt A0PK00: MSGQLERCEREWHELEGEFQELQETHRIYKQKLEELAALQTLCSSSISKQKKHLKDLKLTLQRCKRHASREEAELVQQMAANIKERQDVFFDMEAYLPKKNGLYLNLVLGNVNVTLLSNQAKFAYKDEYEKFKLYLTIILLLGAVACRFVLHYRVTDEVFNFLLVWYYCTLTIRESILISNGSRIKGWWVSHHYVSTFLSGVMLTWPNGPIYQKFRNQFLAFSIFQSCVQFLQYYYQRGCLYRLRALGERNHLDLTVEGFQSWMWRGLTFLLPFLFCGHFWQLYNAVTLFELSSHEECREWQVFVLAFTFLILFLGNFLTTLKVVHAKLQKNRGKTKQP
UniProt Q9BXS4: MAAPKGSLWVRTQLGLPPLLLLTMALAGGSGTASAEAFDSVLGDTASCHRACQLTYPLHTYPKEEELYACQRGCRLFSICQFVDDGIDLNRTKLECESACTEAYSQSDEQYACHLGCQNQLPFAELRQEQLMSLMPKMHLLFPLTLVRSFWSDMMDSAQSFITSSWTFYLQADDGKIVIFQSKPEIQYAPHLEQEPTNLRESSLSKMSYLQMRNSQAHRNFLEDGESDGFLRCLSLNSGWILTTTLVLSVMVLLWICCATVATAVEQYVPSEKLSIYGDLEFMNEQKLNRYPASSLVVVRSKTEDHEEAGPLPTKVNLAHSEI
UniProt Q5SNT2: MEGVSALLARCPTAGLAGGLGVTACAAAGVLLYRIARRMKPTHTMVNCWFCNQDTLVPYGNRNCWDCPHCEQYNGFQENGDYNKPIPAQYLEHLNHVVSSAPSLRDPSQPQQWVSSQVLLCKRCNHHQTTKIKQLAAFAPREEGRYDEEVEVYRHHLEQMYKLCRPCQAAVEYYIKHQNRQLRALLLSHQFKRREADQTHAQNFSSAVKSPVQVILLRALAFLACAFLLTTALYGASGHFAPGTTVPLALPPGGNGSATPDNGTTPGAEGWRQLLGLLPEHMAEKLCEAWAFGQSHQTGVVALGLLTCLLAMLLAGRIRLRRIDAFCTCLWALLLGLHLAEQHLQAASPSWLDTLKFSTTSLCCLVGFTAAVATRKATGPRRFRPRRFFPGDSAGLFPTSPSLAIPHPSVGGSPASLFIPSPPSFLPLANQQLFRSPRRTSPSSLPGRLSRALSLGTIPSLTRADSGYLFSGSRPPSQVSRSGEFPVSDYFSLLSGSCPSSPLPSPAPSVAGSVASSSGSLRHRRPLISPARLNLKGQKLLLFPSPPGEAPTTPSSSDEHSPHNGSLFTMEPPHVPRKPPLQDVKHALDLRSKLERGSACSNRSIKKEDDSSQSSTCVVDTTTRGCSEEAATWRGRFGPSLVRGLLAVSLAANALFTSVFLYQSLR
UniProt Q9BZW5, whole entry, looked up: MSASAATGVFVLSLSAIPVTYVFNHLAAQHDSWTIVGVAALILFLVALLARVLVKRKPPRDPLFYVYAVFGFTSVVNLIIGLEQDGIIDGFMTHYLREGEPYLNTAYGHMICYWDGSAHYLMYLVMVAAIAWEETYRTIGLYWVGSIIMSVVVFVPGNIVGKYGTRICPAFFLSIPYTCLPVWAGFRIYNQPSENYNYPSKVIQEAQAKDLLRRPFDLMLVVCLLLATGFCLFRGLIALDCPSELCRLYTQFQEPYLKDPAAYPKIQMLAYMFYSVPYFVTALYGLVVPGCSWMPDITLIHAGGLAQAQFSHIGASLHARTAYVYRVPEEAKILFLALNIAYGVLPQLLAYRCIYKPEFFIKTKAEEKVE
UniProt O94876, whole entry, looked up: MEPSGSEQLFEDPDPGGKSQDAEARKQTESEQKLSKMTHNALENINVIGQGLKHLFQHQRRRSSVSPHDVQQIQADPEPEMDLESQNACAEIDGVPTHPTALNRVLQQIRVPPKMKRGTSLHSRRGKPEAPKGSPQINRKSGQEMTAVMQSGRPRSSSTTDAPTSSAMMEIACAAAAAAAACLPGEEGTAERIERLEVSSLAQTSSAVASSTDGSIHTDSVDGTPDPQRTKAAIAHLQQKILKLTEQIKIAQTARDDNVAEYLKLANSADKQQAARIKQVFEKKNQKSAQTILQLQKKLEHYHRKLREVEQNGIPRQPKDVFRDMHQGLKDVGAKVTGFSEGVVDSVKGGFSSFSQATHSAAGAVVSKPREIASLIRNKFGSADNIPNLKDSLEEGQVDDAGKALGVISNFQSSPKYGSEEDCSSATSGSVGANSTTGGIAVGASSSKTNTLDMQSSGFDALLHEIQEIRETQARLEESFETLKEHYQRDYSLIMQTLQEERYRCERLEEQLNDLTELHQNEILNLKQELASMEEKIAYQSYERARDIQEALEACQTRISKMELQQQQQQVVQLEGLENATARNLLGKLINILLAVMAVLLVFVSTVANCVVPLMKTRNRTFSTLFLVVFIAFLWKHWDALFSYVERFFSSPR
UniProt Q96B96: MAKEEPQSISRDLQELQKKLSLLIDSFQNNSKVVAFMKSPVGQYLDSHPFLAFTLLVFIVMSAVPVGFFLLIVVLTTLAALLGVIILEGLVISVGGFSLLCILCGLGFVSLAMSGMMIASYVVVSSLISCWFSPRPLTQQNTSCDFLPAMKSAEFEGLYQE

log2 fold change, inactive:
TMPO (UniProt G5E972) -0.067
TNFAIP3 (UniProt P21580) 0.019
TNFRSF1A (UniProt P19438) -0.127
TMEM35B (UniProt Q8NCS4) -0.075
TMCO6 isoform 2 (UniProt Q96DC7) 0.173
TMEM184C (UniProt Q9NVA4) 0.08
TMCO3 (UniProt Q6UWJ1) 0.035
TMEM237 isoform 3 (UniProt Q96Q45) 0.301
TMEM219 (UniProt Q86XT9) 0.037
TMEM134 (UniProt Q9H6X4) 0.157
TMEM120B (UniProt A0PK00) 0.108
TMEM59 (UniProt Q9BXS4) 0.122
TMEM201 (UniProt Q5SNT2) 0.004
TM6SF1 (UniProt Q9BZW5) 0
TMCC1 (UniProt O94876) 0.136
TMEM131 (UniProt Q92545) 0.175
TMEM159 isoform 2 (UniProt Q96B96) 0.139

Quoted at random: 2 entries already listed.
log2 fold change, inactive:
TMEM134 (UniProt Q9H6X4) 0.157
TMEM120B (UniProt A0PK00) 0.108

Reference: the supplement of paper PMC10849652
